Data reported in PubChem BioAssay AID248 (DTP/NCI, 2004).
The list is a part of this screen's results and no random one: it gathers tests that were run many times, whatever their T/C, doses with no T/C, and many T/C values between a quarter and a half above the control. Further doses and runs are listed elsewhere. T/C: endpoint of the treated group in % of that of the vehicle group. Some doses have a count of surviving animals in place of a T/C: the source files T/C as zero there, which appears to mark a toxic dose or a test without result, not a measured value. Some survivor counts are full or nearly so, which does not show that the dose was tolerated: survival well below the control is almost never listed, so the zero probably covers shortened survival too. Survivors were counted at the toxicity check, usually on the fifth day, unless a day is given; later deaths do not show. Schedule codes are those of the source, taken here to give the interval after Q, in days (D) or hours (H), and the number of doses after X. Some schedule codes hold Z or #, which are not explained here. Some molecules as drawn cover several salts, stereoisomers or complexes of the source; a dose is that of the sample tested.

Tested on: L1210 leukemia ip in BDF1 mice, survival T/C
Test: NCI In Vivo Anticancer Drug Screen. Data for tumor model L1210 Leukemia (intraperitoneal) in B6D2F1 (BDF1) mice
Settings: T/C endpoint: mean survival time, higher T/C = longer survival
[1] = dose: 100.0 mg/kg/injection, schedule: Q01DX001 (ip), vehicle: saline
[2] = dose: 200.0 mg/kg/injection, schedule: Q01DX001 (ip), vehicle: saline
[3] = dose: 400.0 mg/kg/injection, schedule: Q01DX001 (ip), vehicle: saline
[4] = dose: 200.0 mg/kg/injection, schedule: Q04DX003 (ip), vehicle: Klucel (hydroxypropylcellulose) (HPC)
[5] = dose: 400.0 mg/kg/injection, schedule: Q04DX003 (ip), vehicle: Klucel (hydroxypropylcellulose) (HPC)
[6] = dose: 100.0 mg/kg/injection, schedule: Q04DX003 (ip), vehicle: saline
[7] = dose: 400.0 mg/kg/injection, schedule: Q01DX009 (ip), vehicle: Klucel (hydroxypropylcellulose) (HPC)
[8] = dose: 100.0 mg/kg/injection, schedule: Q01DX009 (ip), vehicle: saline
[9] = dose: 200.0 mg/kg/injection, schedule: Q01DX009 (ip), vehicle: saline
[10] = dose: 100.0 mg/kg/injection, schedule: Q04DX003 (ip), vehicle: saline with Tween-80
[11] = dose: 400.0 mg/kg/injection, schedule: Q04DX003 (ip), vehicle: saline with Tween-80
[12] = dose: 150.0 mg/kg/injection, schedule: Q01DX001 (ip), vehicle: saline
[13] = dose: 300.0 mg/kg/injection, schedule: Q01DX001 (ip), vehicle: saline
[14] = dose: 200.0 mg/kg/injection, schedule: Q04DX003 (ip), vehicle: saline
[15] = dose: 400.0 mg/kg/injection, schedule: Q04DX003 (ip), vehicle: saline
[16] = dose: 400.0 mg/kg/injection, schedule: Q01DX001 (ip), vehicle: other

## Cc1ccc2c(C)c3c(ccc4ccccc43)c[n+]2c1
dose: 30.0 mg/kg/injection, schedule: Q01DX015 (ip), vehicle: saline
  survivor count: 0 of 6
dose: 40.0 mg/kg/injection, schedule: Q01DX001 (ip), vehicle: saline
  survivor count: 0 of 4
dose: 45.0 mg/kg/injection, schedule: Q01DX015 (ip), vehicle: saline
  survivor count: 0 of 6
dose: 65.0 mg/kg/injection, schedule: Q01DX015 (ip), vehicle: saline
  survivor count: 0 of 6
dose: 80.0 mg/kg/injection, schedule: Q01DX001 (ip), vehicle: saline
  survivor count: 0 of 4
[1]
  survivor count: 0 of 4
[2]
  survivor count: 0 of 4
[3]
  survivor count: 0 of 4

## CN=C(c1ccc(NC(=O)c2cccc(C(=O)Nc3ccc(C(=NC)N(C)C)cc3)c2)cc1)N(C)C
dose: 15.0 mg/kg/injection, schedule: Q01DX Z (ip), vehicle: saline
  survivor count: 0 of 6
dose: 30.0 mg/kg/injection, schedule: Q01DX Z (ip), vehicle: saline
  survivor count: 0 of 6
dose: 60.0 mg/kg/injection, schedule: Q01DX Z (ip), vehicle: saline
  survivor count: 0 of 6
dose: 120.0 mg/kg/injection, schedule: Q01DX Z (ip), vehicle: saline
  survivor count: 0 of 6

## CC1CN=C(c2cccc(NC(=O)NCCCCNC(=O)Nc3cccc(C4=NCC(C)N4)c3)c2)N1 (stereo not drawn)
dose: 13.0 mg/kg/injection, schedule: Q01DX Z (ip), vehicle: carboxymethylcellulose (CMC)
  survivor count: 6 of 6
dose: 26.0 mg/kg/injection, schedule: Q01DX Z (ip), vehicle: carboxymethylcellulose (CMC)
  survivor count: 6 of 6
dose: 52.0 mg/kg/injection, schedule: Q01DX Z (ip), vehicle: carboxymethylcellulose (CMC)
  survivor count: 0 of 6

## Cc1cc([N+](C)(C)C)cc(C)c1C#[N+][O-]
dose: 50.0 mg/kg/injection, schedule: Q01DX001 (ip), vehicle: saline
  survivor count: 2 of 6
[1]
  survivor count: 0 of 6
[2]
  survivor count: 0 of 6
[3]
  survivor count: 0 of 6

## c1ccc(CN2CCn3nccc32)cc1
dose: 400.0 mg/kg/injection, schedule: Q01DX009 (ip), vehicle: other
  survivor count: 3 of 6

## O=c1ccc2c([nH]1)CCC2
[4]
  survivor count: 6 of 6
[5]
  survivor count: 0 of 6

## O=C(O)COc1ccc(Cl)cc1Cl (tested in a mixture with another compound)
[6]
  survivor count: 1 of 6
dose: 200.0 mg/kg/injection, schedule: Q01DX001 (ip), vehicle: carboxymethylcellulose (CMC)
  survivor count: 1 of 6
dose: 400.0 mg/kg/injection, schedule: Q01DX001 (ip), vehicle: carboxymethylcellulose (CMC)
  survivor count: 0 of 6

## CC(=O)OCC1OC(n2nnc(CBr)c2CBr)C(OC(C)=O)C(OC(C)=O)C1OC(C)=O (stereo not drawn)
dose: 100.0 mg/kg/injection, schedule: Q01DX005 (ip), vehicle: other
  survivor count: 3 of 6
dose: 200.0 mg/kg/injection, schedule: Q01DX005 (ip), vehicle: other
  survivor count: 0 of 6

## CCOc1ccccc1NC(=O)c1c(Br)c(Br)c(Br)c(Br)c1C(=O)O
[7]
  survivor count: 0 of 6

## CN(C)C(=S)[S][Sn]([CH3])([CH3])[CH3]
dose: 6.25 mg/kg/injection, schedule: Q01DX009 (ip), vehicle: saline
  survivor count: 0 of 3
dose: 12.5 mg/kg/injection, schedule: Q01DX009 (ip), vehicle: saline
  survivor count: 0 of 3
dose: 25.0 mg/kg/injection, schedule: Q01DX009 (ip), vehicle: saline
  survivor count: 0 of 3
[8]
  survivor count: 0 of 3
[9]
  survivor count: 0 of 3
dose: 400.0 mg/kg/injection, schedule: Q01DX009 (ip), vehicle: saline
  survivor count: 0 of 3

## CC(/C=C/c1ccco1)=N\O
dose: 100.0 mg/kg/injection, schedule: Q01DX009 (ip), vehicle: other
  survivor count: 0 of 3
dose: 200.0 mg/kg/injection, schedule: Q01DX009 (ip), vehicle: other
  survivor count: 0 of 3

## Cc1cc(C)c(C(=O)c2no[n+]([O-])c2C(=O)c2c(C)cc(C)c(Br)c2C)c(C)c1Br
[10]
  survivor count: 6 of 6
[11]
  survivor count: 6 of 6

## CC(=O)SC1CS(=O)(=O)CC1SC(C)=O (stereo not drawn)
[5]
  survivor count: 0 of 6

## NNC(=S)NC1CCCCC1
[4]
  survivor count: 5 of 6
[5]
  survivor count: 0 of 6

## OCC12CCCCC1CC1(CC2)OCCO1 (stereo not drawn)
[11]
  survivor count: 6 of 6

## CN1CCN(C(=O)NCCCl)CC1
[10]
  survivor count: 0 of 6
dose: 200.0 mg/kg/injection, schedule: Q04DX003 (ip), vehicle: saline with Tween-80
  survivor count: 0 of 6
[11]
  survivor count: 0 of 6

## C[N+](C)(C)C12CCCCC1S(=O)(=O)C2 (stereo not drawn)
[12]
  survivor count: 1 of 6
[13]
  survivor count: 0 of 6

## CCN(CC)CCN(C)c1cc(C)nc(/N=C(\N)Nc2ccc(Cl)c(Cl)c2)n1
dose: 150.0 mg/kg/injection, schedule: Q04DX003 (ip), vehicle: saline with Tween-80
  survivor count: 1 of 6

## ClC(Cl)(Cl)CC(Br)C(Br)CBr (stereo not drawn)
dose: 200.0 mg/kg/injection, schedule: Q01DX009 (ip), vehicle: acetone
  survivor count: 6 of 6
dose: 400.0 mg/kg/injection, schedule: Q01DX009 (ip), vehicle: acetone
  survivor count: 3 of 6

## CCN(CC)CCCOC(=O)C(c1ccccc1)C1CCCCC1 (stereo not drawn)
[6]
  survivor count: 1 of 6
[14]
  survivor count: 0 of 6
[15]
  survivor count: 0 of 6

## O=C(Nc1ccc([N+](=O)[O-])cc1Cl)Oc1ccc2ccccc2c1
[7]
  survivor count: 4 of 6

## Cc1ccc(/C=C2/C=C(c3ccccc3)OC2=O)cc1
dose: 400.0 mg/kg/injection, schedule: Q04DX003 (ip), vehicle: alcohol
  survivor count: 3 of 6

## CN(C)CCN(C(=O)c1ccc(N)cc1)c1ccccc1
[9]
  survivor count: 0 of 3

## CC(=O)Cc1cc(C)nc(NC#N)n1
dose: 400.0 mg/kg/injection, schedule: Q04DX002 (ip), vehicle: Klucel (hydroxypropylcellulose) (HPC)
  survivor count: 3 of 3

## [O-]c1n[n+](C2CCCCC2)no1
dose: 20.0 mg/kg/injection, schedule: Q01DX001 (ip), vehicle: other
  survivor count: 2 of 4
dose: 40.0 mg/kg/injection, schedule: Q01DX001 (ip), vehicle: other
  survivor count: 0 of 4
dose: 80.0 mg/kg/injection, schedule: Q01DX001 (ip), vehicle: other
  survivor count: 0 of 4
dose: 100.0 mg/kg/injection, schedule: Q01DX001 (ip), vehicle: other
  survivor count: 0 of 4
dose: 200.0 mg/kg/injection, schedule: Q01DX001 (ip), vehicle: other
  survivor count: 0 of 4
[16]
  survivor count: 0 of 4

## O=C(CBr)NC(Cc1ccccc1)C(=O)O (stereo not drawn)
[12]
  survivor count: 1 of 6
[13]
  survivor count: 3 of 6

## CCN(CC)CC(=O)NCC(C)(CCN1CCCCC1)c1cccc2ccccc12 (stereo not drawn)
[8]
  survivor count: 0 of 6
[14]
  survivor count: 5 of 6
[15]
  survivor count: 0 of 6

## C=C1CC[N+]2(CCCC)CCCC12 (stereo not drawn)
dose: 50.0 mg/kg/injection, schedule: Q01DX009 (ip), vehicle: Klucel (hydroxypropylcellulose) (HPC)
  survivor count: 2 of 3
dose: 100.0 mg/kg/injection, schedule: Q01DX009 (ip), vehicle: Klucel (hydroxypropylcellulose) (HPC)
  survivor count: 0 of 3
dose: 200.0 mg/kg/injection, schedule: Q01DX009 (ip), vehicle: Klucel (hydroxypropylcellulose) (HPC)
  survivor count: 0 of 3

## CC1(C)CC(=O)C=C(OS(=O)(=O)C(F)(F)F)C1
dose: 200.0 mg/kg/injection, schedule: Q01DX009 (ip), vehicle: DMSO
  survivor count: 1 of 6

## CCc1cc2c([nH]c3ccccc32)c(C)c1CCN(C)C
[16]
  survivor count: 0 of 4
